Values from PubChem BioAssay AID1259425 (University of Nebraska Medical Center, 2018)

Test: 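Compare each knockdown with KSR1 silencing using changes in marker transcripts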 (primary screen)
System: HCT116 human colon cancer cells
Reagents: siRNA pool against human genes, 50 nM siRNA
Read-out: 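mRNA of six signature genes measured together by branched-DNA assay after 50 nM siRNA pool, blank removed, divided by geometric mean of two housekeeping genes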
Scale: BNIP3L mRNA: higher = more BNIP3L transcript after knockdown
This is one part, drawn at random, of about 14,000 reagents. Not all columns of the deposit are shown. Reagent sequences are not shown. Not given: the time to read-out.

TAS2R39 (taste 2 receptor member 39) scored BNIP3L mRNA, set 1 = 0.111.
After knock-down of MC2R (melanocortin 2 receptor) the results were BNIP3L mRNA, set 1 = 0.171.
For TDRD1 (tudor domain containing 1) the deposit lists BNIP3L mRNA, set 1 = 0.281.
Depletion of MYH10 (myosin heavy chain 10) came out at: BNIP3L mRNA, set 1 = 0.0933.
Against RIC8B (RIC8 guanine nucleotide exchange factor B), the entry reads BNIP3L mRNA, set 1 = 0.122.
For DOCK4 (dedicator of cytokinesis 4), the values are BNIP3L mRNA, set 1 = 0.107.
Knock-down of SOX5 (SRY-box transcription factor 5) came out at: BNIP3L mRNA, set 1 = 0.21.
Against NRP2 (neuropilin 2) the deposit lists BNIP3L mRNA, set 1 = 0.0857.
Depletion of LSAMP (limbic system associated membrane protein) came out at: BNIP3L mRNA, set 1 = 0.0552.
After knock-down of ST14 (ST14 transmembrane serine protease matriptase), the screen gave BNIP3L mRNA, set 1 = 0.135.
HEATR6 (HEAT repeat containing 6) gave BNIP3L mRNA, set 1 = 0.131.
Silencing of GUCA2A (guanylate cyclase activator 2A) gave: BNIP3L mRNA, set 1 = 0.248.
For WDR3 (WD repeat domain 3), the values are BNIP3L mRNA, set 1 = 1.14.
After knock-down of RBSN (rabenosyn, RAB effector) the results were BNIP3L mRNA, set 1 = 0.0957.
Against ICOS (inducible T cell costimulator), the values are BNIP3L mRNA, set 1 = 0.186.
Silencing of HYAL2 (hyaluronidase 2) came out at: BNIP3L mRNA, set 1 = 0.0935.
After knock-down of KIF25 (kinesin family member 25), the screen gave BNIP3L mRNA, set 1 = 0.0629.
Depletion of PPP1R16A (protein phosphatase 1 regulatory subunit 16A) resulted in: BNIP3L mRNA, set 1 = 0.0688.
YAP1 (Yes1 associated transcriptional regulator) showed BNIP3L mRNA, set 1 = 0.136.
RPP30 (ribonuclease P/MRP subunit p30) gave BNIP3L mRNA, set 1 = 0.135.
ANKRD28 (ankyrin repeat domain 28) scored BNIP3L mRNA, set 1 = 0.0593.
Against PCBP1 (poly(rC) binding protein 1), the entry reads BNIP3L mRNA, set 1 = 0.137.
With knock-down of CGB5 (chorionic gonadotropin subunit beta 5), the record shows BNIP3L mRNA, set 1 = 0.118.
CTSL (cathepsin L) scored BNIP3L mRNA, set 1 = 0.0388.
For CLEC10A (C-type lectin domain containing 10A), the entry reads BNIP3L mRNA, set 1 = 0.162.
For HOXD8 (homeobox D8), the values are BNIP3L mRNA, set 1 = 0.0709.
For ARHGEF1 (Rho guanine nucleotide exchange factor 1), the values are BNIP3L mRNA, set 1 = 0.0669.
For FGFR2 (fibroblast growth factor receptor 2) the deposit lists BNIP3L mRNA, set 1 = 0.11.
Knock-down of LDHC (lactate dehydrogenase C) resulted in: BNIP3L mRNA, set 1 = 0.249.
ZNRF3 (zinc and ring finger 3) gave BNIP3L mRNA, set 1 = 0.173.
Against SLC7A2, the entry reads BNIP3L mRNA, set 1 = 0.121.
With knock-down of MEPCE (methylphosphate capping enzyme), the screen gave BNIP3L mRNA, set 1 = 0.327.
SF3B5 (splicing factor 3b subunit 5) showed BNIP3L mRNA, set 1 = 0.0596.
Depletion of STIM2 (stromal interaction molecule 2) came out at: BNIP3L mRNA, set 1 = 0.0586.
FRMD8P1 (FERM domain containing 8 pseudogene 1) gave BNIP3L mRNA, set 1 = 0.119.
Silencing of ADSS1 (adenylosuccinate synthase 1) resulted in: BNIP3L mRNA, set 1 = 0.0566.

Taken from above.
Result of STIM2 (stromal interaction molecule 2) in “BNIP3L mRNA, set 1”: 0.0586
Under “BNIP3L mRNA, set 1”, ICOS (inducible T cell costimulator) shows 0.186
CTSL (cathepsin L), BNIP3L mRNA, set 1 = 0.0388
Value of RPP30 (ribonuclease P/MRP subunit p30) in “BNIP3L mRNA, set 1”: 0.135
RBSN (rabenosyn, RAB effector), BNIP3L mRNA, set 1 = 0.0957
